Results deposited as PubChem BioAssay AID1671195 (Yale University, 2021)
This is an unselected part of about 22,000 reagents tested. About 1,510 of all reagents (6.9%) were called active. 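Active includes knockdowns raising or lowering LDL uptake; positive z-scores mean more uptake, negative mean less.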 Unmarked entries are inactive. The numbers tell different reagents against one gene apart. Reagent sequences are not shown.

Assay: 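Knockdowns that increase or decrease uptake of fluorescent LDL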 (primary screen)
Cell system: human Huh7 hepatoma cells
Reagent: siRNA pool against human genes, 18 nM
Duration: about 2 to 2.5 days of knockdown, then 8 h LDL uptake
Treatment: DiI-labelled LDL at 30 µg/ml for 8 h, in lipoprotein-deficient serum medium
Measured: 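Fluorescent LDL signal imaged in cells, scaled to the plate median, robust z-score for each replicate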
Reading the numbers: robust z-score: higher = more LDL uptake after knockdown
Call rule: 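a gene counts as active if at least two replicate z-scores exceed ±2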

target gene | reagent | robust z-score, replicate 1 | robust z-score, replicate 2 | robust z-score, replicate 3
HSD17B7 | 1 | -1.3 | -1.03 | -1.13
VWA7 | 1 | -2.29 (active) | -2.1 | -2.08
CRYBA4 | 1 | 0.997 | 0.841 | -1.09
LINC00608 | 1 | -1.23 | -1.22 | -1.65
LOC283530 (retired record) | 1 | -1.23 | -0.935 | -1.13
RPL10AP4 | 1 | 0.418 | -0.0301 | -0.324
RTEL1 | 1 | -0.0701 | 0.12 | -0.0477
RARRES2 | 1 | 2.44 (active) | 1.92 | 1.64
LOC151443 (retired record) | 1 | 0.095 | 0.306 | -0.437
ADAMTSL5 | 1 | -0.35 | -0.147 | -0.0523
SPACA6 | 1 | 2.18 (active) | 2.38 | 1.19
POLR2DP1 | 1 | -0.904 | -1.26 | -1.54
LRRC32 | 1 | -0.0481 | 0.549 | -0.0989
LOC440941 (retired record) | 1 | 0.221 | 0.1 | -0.179
PNPLA1 | 1 | -1.75 | -1.76 | -1.49
AAK1 | 1 | 2.37 | 1.39 | 1.41
AAK1 | 2 | 0.357 | -0.0825 | 0.0785
TESMIN | 1 | -1.06 | -0.4 | 1.14
CER1 | 1 | -0.108 | -0.708 | 0.0718
CTAGE6 | 1 | 0.963 | 1.04 | 1.31
LOC388629 (retired record) | 1 | 0.59 | 0.51 | 0.174
GGTLC2 | 1 | -0.385 | -0.76 | -1.02
C1orf185 | 1 | 3.33 (active) | 2.69 | 3.32
UBE2W | 1 | 1.24 | 0.445 | 1.43
LOC400590 (retired record) | 1 | -0.349 | 0.171 | -0.0386
ZC3H18 | 1 | -0.573 | 0.28 | 0.192
WBP2NL | 1 | -0.0173 | -0.00689 | -0.276
SERPINE2 | 1 | -0.0423 | 0.501 | 0.975
GIT1 | 1 | -1.13 | -1.95 | -0.792
GPR146 | 1 | -2.07 | 0.833 | 0.236
ABHD14B | 1 | -0.272 | -0.252 | -0.3
LOC402463 (retired record) | 1 | 0.51 | -1.27 | -0.00798
VEGFA | 1 | 0.284 | -0.876 | -1.23
MYO1B | 1 | -0.306 | 0.697 | -1
EIF2S2 | 1 | -1.22 | -1.06 | -1.1
HMOX2 | 1 | 0.778 | 1.27 | 0.843
CIP2A | 1 | 1.17 | 0.131 | -0.761
PHF13 | 1 | 1.48 | 0.545 | 1.18
OR14K1 | 1 | 0.117 | 0.209 | 0.357
LOC441348 (retired record) | 1 | 0.221 | -0.156 | -0.244
RPL7AP63 | 1 | -0.608 | -2.43 | -0.839
TEX261 | 1 | -0.817 | 0.106 | -0.73
VWA2 | 1 | 0.986 | -0.0113 | 0.341
PMS2P5 | 1 | 1.24 (active) | 2.07 | 1.97
PPP2R2B | 1 | -1.33 | -1.72 | -1.3
OVOS1P | 1 | 1.57 | 0.258 | 0.112
TIMM10 | 1 | -0.773 | -0.258 | -0.527
DCAF12 | 1 | 0.264 | 0.0886 | 0.262
TSTD2 | 1 | -0.137 | -1.62 | -0.28
LRBA | 1 | 3.38 (active) | 3.58 | 3.14
LOC441494 (retired record) | 1 | 1.66 | 0.813 | 0.493
ITGAD | 1 | 0.348 | -0.865 | -1.02
ZNF384 | 1 | -1.01 | -1.04 | -0.952
ZMAT1 | 1 | -1.58 | -0.526 | 0.0431
SLC5A9 | 1 | 0.537 | 1.22 | 0.926
LOC399969 (retired record) | 1 | 1.06 | 0.443 | 0.0436
TCP11 | 1 | 0.216 | -0.0871 | 0.948
SCGB1D2 | 1 | -1.28 | -1.87 | -0.719
LIPM | 1 | -0.293 | -0.308 | 0.181
PPM1J | 1 | 0.193 | -0.0232 | 0.204
BEX3 | 1 | -0.44 | 0.393 | -1.03
MED23 | 1 | -1.09 | 0.835 | -0.877
LUZP2 | 1 | -0.536 | -0.728 | -0.481
TMEM165 | 1 | 1.01 | 2.13 | -0.517
CCDC121 | 1 | -1.13 | -0.744 | -1.17
RING1 | 1 | -1.08 | -0.683 | -0.793
GPER1 | 1 | -1.4 | -0.984 | -0.829
CLP1 | 1 | -1.66 | -1.6 | -2.33

9 entries already listed, arranged by “robust z-score, replicate 3”, low to high:
target gene | reagent | robust z-score, replicate 1 | robust z-score, replicate 2 | robust z-score, replicate 3
GIT1 | 1 | -1.13 | -1.95 | -0.792
ABHD14B | 1 | -0.272 | -0.252 | -0.3
WBP2NL | 1 | -0.0173 | -0.00689 | -0.276
LOC400590 (retired record) | 1 | -0.349 | 0.171 | -0.0386
ZC3H18 | 1 | -0.573 | 0.28 | 0.192
GPR146 | 1 | -2.07 | 0.833 | 0.236
SERPINE2 | 1 | -0.0423 | 0.501 | 0.975
UBE2W | 1 | 1.24 | 0.445 | 1.43
C1orf185 | 1 | 3.33 (active) | 2.69 | 3.32
